# From the supplement of paper PMC11732987, “Enantioselective OTUD7B fragment discovery through chemoproteomics screening and high-throughput optimisation” (Communications Chemistry, 2025)
# The list shows a part of the results. The data scatter; read single values as rough.
# Biological target: SARS1 C438 (UniProt Q5T5C7)
# Assay: log2 mean competition ratio of IA-DTB cysteine labelling (DMSO/compound) (log2 ratio); higher = stronger cysteine engagement by compound
# Details: 50 µM; treatment time: 4 h; cell line lysate: HEK293T
# Protocol: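 IA-DTB competitive cysteine chemoproteomics in HEK293T RIPA lysate. Lysates were treated with compound 29 or 30 at 50 or 200 µM for 4 h, then IA-DTB (500 µM, 1 h), trypsin-digested, NeutrAvidin-enriched and analysed by diaPASEF. Competition ratio = intensity DMSO / intensity compound (n=4 treated, n=64 DMSO); binding: mean log2 CR ≥ 1 and p ≤ 0.05 plus QC filters. Target is the cysteine site.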
row,Compound,log2 mean competition ratio
1,O=C(CCl)N[C@H]1CCCc2ccccc21,-0.0892
2,O=C(CCl)N[C@@H]1CCCc2ccccc21,-0.0785

# Same assay, conditions: 200 µM; treatment time: 4 h; cell line lysate: HEK293T
row,Compound,log2 mean competition ratio
1,O=C(CCl)N[C@H]1CCCc2ccccc21,-0.247
2,O=C(CCl)N[C@@H]1CCCc2ccccc21,-0.299
